Test results taken from patent publication US20230125788.
Construct, isoform or probe ends are uncertain for at least one entry. Whether high values mean tight binding is not given here for every scale.

Amino acid sequences for entries named in this document (tags omitted).
UniProt Q13148, whole entry: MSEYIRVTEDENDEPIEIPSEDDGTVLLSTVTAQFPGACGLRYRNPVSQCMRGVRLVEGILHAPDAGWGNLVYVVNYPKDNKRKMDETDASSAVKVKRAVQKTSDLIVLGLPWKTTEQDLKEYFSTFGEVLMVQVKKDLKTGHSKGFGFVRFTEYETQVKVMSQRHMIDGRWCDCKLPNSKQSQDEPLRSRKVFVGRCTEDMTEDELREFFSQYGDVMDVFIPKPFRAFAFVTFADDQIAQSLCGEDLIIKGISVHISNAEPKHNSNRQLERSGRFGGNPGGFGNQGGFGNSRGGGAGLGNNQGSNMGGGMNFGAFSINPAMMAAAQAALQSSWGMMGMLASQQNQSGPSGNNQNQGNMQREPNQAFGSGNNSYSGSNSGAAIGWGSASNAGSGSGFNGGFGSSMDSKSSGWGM

Biological target: TDP-43 WT (UniProt Q13148)
Experiment: binding assay
Conditions: CITED affinity; experiment here: no droplet formation at 250 mM NaCl; purified recombinant protein; single-stranded DNA

AGTGTGTGTGTGTGTGTGTGTGTGTGTGTGTGTGTGT [A(GT)18]
binding signal (fold lower affinity than RNA): 200
